Data on three substances can be found in paper doi:10.1101/2023.11.27.568816.

Sequences of proteins named here, by UniProt entry; tags and fusion partners are left off.
UniProt P42684, whole entry: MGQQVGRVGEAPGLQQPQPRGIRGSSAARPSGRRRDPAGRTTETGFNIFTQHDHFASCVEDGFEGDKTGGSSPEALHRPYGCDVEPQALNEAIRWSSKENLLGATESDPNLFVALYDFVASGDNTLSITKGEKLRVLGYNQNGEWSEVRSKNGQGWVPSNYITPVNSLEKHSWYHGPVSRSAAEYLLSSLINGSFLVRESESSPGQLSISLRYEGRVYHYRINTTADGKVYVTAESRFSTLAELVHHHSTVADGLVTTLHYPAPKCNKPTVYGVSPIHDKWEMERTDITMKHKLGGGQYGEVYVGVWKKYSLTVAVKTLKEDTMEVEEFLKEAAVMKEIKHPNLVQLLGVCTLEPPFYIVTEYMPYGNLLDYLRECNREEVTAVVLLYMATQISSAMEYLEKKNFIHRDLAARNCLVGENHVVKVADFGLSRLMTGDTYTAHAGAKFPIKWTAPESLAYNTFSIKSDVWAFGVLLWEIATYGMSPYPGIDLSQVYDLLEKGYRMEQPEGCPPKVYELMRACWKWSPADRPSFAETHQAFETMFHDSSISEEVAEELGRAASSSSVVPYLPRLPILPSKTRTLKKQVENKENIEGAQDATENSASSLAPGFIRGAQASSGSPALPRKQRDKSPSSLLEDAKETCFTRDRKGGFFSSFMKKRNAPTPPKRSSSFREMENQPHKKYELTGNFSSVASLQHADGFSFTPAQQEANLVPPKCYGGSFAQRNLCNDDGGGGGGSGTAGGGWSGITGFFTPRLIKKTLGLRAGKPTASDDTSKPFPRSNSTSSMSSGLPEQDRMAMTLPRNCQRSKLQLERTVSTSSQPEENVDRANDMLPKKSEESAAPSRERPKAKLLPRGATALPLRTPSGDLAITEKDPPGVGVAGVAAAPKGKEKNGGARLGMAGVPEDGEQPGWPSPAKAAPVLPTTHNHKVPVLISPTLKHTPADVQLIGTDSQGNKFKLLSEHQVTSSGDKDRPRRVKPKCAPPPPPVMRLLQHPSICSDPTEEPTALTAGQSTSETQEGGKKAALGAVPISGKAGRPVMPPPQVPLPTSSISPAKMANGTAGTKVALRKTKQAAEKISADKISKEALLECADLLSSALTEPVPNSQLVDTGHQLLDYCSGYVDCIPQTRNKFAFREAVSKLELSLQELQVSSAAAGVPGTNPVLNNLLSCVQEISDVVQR
UniProt Q7KZI7, whole entry: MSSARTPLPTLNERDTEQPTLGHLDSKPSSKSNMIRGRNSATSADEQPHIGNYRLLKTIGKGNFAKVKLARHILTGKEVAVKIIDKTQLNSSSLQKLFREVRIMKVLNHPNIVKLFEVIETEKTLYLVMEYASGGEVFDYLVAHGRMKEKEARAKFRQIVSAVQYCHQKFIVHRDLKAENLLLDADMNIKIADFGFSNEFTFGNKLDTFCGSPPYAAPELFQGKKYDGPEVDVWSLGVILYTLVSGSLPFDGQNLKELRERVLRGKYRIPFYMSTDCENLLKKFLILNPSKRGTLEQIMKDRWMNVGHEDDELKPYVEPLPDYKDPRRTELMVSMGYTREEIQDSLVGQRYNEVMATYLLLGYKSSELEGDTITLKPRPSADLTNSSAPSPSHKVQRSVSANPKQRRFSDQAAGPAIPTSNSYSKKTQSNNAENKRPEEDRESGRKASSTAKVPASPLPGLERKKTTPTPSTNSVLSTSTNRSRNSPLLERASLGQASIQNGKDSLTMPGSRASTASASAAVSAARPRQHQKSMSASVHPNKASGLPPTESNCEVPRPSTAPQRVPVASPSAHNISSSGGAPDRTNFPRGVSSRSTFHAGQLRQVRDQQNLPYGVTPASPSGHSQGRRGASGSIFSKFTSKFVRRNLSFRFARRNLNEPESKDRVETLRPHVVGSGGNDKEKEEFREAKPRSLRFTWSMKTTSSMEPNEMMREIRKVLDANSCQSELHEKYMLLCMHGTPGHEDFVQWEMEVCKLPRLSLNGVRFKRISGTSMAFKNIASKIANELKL
UniProt P0DTD2, whole entry: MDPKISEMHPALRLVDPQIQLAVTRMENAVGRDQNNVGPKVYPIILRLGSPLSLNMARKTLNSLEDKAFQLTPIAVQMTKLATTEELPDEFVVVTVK

These are yes or no findings as the source states them, for the method shown. Some results given as binding are weak or reduced against the parent protein; the word gives no strength.

What all share (assay): two-hybrid
Test [1] concerns the target T1, PHKG2 (human) (UniProt P15735).
T1 sequence: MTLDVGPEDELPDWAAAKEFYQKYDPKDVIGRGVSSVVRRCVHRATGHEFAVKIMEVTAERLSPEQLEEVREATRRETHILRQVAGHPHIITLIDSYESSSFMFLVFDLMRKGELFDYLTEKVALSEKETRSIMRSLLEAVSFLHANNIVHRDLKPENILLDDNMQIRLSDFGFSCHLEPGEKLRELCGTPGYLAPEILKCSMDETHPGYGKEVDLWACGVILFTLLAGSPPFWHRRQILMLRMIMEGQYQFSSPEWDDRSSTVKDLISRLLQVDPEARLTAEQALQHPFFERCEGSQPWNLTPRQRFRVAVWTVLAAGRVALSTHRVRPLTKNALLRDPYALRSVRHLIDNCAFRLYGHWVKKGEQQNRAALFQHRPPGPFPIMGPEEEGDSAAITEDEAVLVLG

Test [2] concerns the target ABL2 (human) (UniProt P42684).
Test [3] concerns the target MARK2 (microtubule affinity regulating kinase 2) (human) (UniProt Q7KZI7).

Consider “SARS-CoV-2 NSP5 (from UniProt P0DTD1 3264-3569)”, for which, in test [1], the binding entry is given as “binds”.
For “SARS-CoV-2 NSP13 (from UniProt P0DTD1 5325-5925)”, the binding entry in test [2] is “binds”.
As for “SARS-CoV-2 ORF9b (from UniProt P0DTD2 1-97)”, in test [3], the binding entry is listed as “binds”.
